Patent publication US20240418704A1, “EPIGENETIC TARGETS IN CLONAL HEMATOPOIESIS” (Memorial Sloan-Kettering Cancer Center, priority 2021, published 2024)
For at least one compound, name, drawing or mass did not settle the structure.

Tested on: HSPCs co-cultured with BMECs
Assay: BMEC co-culture system: cell-type specific differentiation readout in response to small molecules
Type: cell-based, murine
Details: Cd11b+Gr1+, Lin neg, GMP, MEP and LSK cells after contacting the cells with the agent, FIGS. 4A-4C
Excerpt: FIGS. 4A-4C. BMEC co-culture system can be used to readout cell-type specific dependencies in response to small molecules and single guide RNAs (sgRNAs).
A platform was adopted whereby primary murine HSPCs are co-cultured with bone marrow endothelial cells that allow for maintenance and expansion of HSPCs (FIG. 1). […] Thus, the adopted HSPC-BMEC co-culture platform is a robust system to study genetically defined murine HSPCs with CH genomic modifications.

CC1=C(/C=C/C(C)=C/C=C/C(C)=C/C(=O)O)C(C)(C)CCC1 [Retinoic Acid]
effect on differentiation (percentage of heme-expression and cell differentiation): induces differentiation

CC1(C)CCC(CN2CCN(c3ccc(C(=O)NS(=O)(=O)c4ccc(NCC5CCOCC5)c([N+](=O)[O-])c4)c(Oc4cnc5[nH]ccc5c4)c3)CC2)=C(c2ccc(Cl)cc2)C1 [Venetoclax]
effect on differentiation (percentage of heme-expression and cell differentiation): has no effect on differentiation
